Laboratory results published in paper PMC6478918.
These are yes or no findings as the source states them, for the method shown. Binding seen in cells or lysates may run through a third protein. Some entries that bind do so weakly or less than the wild type.

The chains behind the UniProt entries cited, without tags or fusion partners. Residues count along the entry.
UniProt O35625: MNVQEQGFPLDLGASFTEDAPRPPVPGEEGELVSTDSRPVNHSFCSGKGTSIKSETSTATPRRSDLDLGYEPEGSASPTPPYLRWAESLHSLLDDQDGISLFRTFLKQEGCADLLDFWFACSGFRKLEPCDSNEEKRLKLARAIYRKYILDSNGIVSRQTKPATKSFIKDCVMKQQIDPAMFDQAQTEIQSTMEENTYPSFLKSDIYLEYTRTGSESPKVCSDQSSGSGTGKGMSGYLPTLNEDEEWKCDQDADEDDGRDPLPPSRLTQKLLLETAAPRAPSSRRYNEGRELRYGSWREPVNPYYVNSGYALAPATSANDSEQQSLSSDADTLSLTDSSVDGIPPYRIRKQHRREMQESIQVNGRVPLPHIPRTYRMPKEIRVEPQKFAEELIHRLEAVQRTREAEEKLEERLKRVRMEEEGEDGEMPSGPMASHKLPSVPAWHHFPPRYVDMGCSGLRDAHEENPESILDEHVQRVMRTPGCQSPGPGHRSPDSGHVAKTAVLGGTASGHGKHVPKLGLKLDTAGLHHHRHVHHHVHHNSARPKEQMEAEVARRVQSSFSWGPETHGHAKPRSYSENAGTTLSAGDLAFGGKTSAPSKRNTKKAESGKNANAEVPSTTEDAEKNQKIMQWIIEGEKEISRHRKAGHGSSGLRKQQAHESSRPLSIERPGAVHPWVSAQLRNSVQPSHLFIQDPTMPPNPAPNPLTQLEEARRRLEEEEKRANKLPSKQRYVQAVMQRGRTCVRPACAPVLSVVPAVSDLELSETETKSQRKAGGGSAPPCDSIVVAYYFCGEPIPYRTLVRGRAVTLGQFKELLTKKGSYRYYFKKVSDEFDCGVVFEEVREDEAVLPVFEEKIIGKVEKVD
UniProt Q02248: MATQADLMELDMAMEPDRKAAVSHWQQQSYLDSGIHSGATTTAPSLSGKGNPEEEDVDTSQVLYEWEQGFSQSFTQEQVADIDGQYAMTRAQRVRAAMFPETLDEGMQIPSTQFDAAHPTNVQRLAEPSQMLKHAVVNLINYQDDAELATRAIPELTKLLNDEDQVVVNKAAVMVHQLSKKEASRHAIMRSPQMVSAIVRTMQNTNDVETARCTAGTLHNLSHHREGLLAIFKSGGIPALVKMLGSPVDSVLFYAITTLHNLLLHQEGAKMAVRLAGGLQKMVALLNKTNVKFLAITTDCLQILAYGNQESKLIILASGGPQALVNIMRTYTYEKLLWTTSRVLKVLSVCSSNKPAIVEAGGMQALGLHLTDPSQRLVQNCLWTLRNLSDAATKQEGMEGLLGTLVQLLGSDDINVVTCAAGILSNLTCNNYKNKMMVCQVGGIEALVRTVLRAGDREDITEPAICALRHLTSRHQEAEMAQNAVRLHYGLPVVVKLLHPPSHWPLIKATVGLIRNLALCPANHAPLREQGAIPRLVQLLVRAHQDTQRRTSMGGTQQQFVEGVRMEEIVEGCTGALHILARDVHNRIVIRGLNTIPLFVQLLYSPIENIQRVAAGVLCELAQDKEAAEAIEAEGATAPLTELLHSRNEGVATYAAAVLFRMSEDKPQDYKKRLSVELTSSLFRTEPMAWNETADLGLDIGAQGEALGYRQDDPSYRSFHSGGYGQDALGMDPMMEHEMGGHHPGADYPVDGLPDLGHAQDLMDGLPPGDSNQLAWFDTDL
UniProt P15116, residues 160-906: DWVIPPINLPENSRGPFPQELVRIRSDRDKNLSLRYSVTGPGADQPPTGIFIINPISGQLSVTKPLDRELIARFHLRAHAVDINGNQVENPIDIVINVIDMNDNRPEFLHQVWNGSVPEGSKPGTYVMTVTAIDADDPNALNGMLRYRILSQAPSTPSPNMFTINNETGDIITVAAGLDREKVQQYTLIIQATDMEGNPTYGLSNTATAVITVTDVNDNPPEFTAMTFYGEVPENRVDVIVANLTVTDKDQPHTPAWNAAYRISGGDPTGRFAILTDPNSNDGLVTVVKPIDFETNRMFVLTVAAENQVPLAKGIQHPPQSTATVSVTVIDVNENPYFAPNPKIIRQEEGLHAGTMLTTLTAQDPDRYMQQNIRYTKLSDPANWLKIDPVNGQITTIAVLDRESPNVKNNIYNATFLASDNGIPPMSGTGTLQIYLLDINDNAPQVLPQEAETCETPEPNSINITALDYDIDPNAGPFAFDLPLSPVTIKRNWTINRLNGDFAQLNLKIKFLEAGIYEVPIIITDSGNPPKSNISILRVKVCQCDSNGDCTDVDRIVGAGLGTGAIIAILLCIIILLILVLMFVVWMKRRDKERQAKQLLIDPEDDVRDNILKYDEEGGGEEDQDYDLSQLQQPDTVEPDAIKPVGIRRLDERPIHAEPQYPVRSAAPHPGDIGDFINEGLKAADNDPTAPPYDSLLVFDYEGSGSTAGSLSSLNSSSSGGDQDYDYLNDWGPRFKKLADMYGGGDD

Experiments:
[1] = target: Axin (mouse (endogenous in TKO HCC cells)) (UniProt O35625); assay: co-IP; IP of endogenous Axin (IgG as control) from TKO HCC cell lysate; immunoblot for Axin, GSK3α/β and phospho-β-catenin
[2] = target: epidermal growth factor receptor (EGFR) (mouse (endogenous in TKO HCC cells)) (UniProt Q01279); assay: co-IP; IP of endogenous EGFR (IgG as control) from TKO HCC cell lysate; immunoblot of unbound and pull-down fractions; also cells with shβcat3 (β-catenin KD)
[3] = target: β-catenin (mouse (endogenous in TKO HCC cells)) (UniProt Q02248); assay: co-IP; IP of endogenous β-catenin (IgG as control) from TKO HCC cell lysate in Triton-X IP Lysis Buffer, antibody 1 h at 4 °C, then A/G agarose beads 1 h; immunoblot; also cells treated with Wnt3A media and cells with shEcad2, shNcad1 or both

binding [1]	binding [2]	binding [3]	Substance
binds			phospho-β-catenin (Ser33/37/Thr41) (from UniProt Q02248 1-781)
	binds	binds	N-cadherin (from UniProt P15116 160-906)
	no binding		β-catenin (from UniProt Q02248 1-781)
